This is an account of results in US20240109881A1, “Heteroaryl Compounds as Ligand Directed Degraders of IRAK4” (Bristol-Myers Squibb Company, priority 2022, published 2024).

Sequences of proteins named here, by UniProt entry; tags and fusion partners are left off.
UniProt Q9NWZ3, whole entry: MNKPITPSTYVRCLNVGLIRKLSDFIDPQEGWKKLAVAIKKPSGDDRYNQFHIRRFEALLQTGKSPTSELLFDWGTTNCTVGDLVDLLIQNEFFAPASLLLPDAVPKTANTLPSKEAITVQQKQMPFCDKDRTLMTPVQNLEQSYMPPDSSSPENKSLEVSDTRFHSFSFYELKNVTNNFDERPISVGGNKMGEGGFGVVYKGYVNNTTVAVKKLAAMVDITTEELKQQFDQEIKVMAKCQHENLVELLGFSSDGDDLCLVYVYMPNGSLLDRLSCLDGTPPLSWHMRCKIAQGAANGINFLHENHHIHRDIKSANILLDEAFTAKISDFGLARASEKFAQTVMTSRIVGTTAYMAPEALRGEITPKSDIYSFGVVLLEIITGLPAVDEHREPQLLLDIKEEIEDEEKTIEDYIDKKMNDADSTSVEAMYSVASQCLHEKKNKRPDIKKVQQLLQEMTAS

The target of the test is IRAK4 (Homo sapiens, UniProt Q9NWZ3). Briefly: LVL THP1 HTRF (THP1 Homogeneous Time Resolved Fluorescence). As to conditions: for LVL THP1 HTRF YMIN: THP1 cells, 18 h incubation with compound; for pEC50: read-out: LVL THP1 HTRF EC50, THP1 cells, 18 h incubation with compound. On the procedure: Cell culture media was prepared in a tissue culture hood in a sterile environment by adding 10% FBS and 1% Penicillin Streptomycin to 500 mL no phenol red RPMI 1640 media. The media was filtered through a Nalgene Bottle Top Filter and stored at 4° C.
For Homogenous Time Resolved Fluorescence (HTRF) assays, a Cisbio HTRF kit was used, which included: Lysis Buffer #1 4×, Blocking Reagent #3 100×, 20× Antibody 1 (Anti-IRAK4 d2), 20× Antibody 2 (Anti-IRAK4 k), and Detection Buffer.
The THP1 plates were prepared by the following method. For each dosing plate, a duplicate for CTG assay was prepared. Two THP-1 T-175 flasks could be used to plate one 384 well plate. The cells were collected from two T-175 flasks into 200 mL centrifuge tubes and spun down at 1200 rpm for 10 min. The supernatant was removed completely and cells were resuspended in 7.5 mL cell culture media. To 5 μL of the cell suspension was added 25 μL of media and 30 μL of Trypan Blue stain. The cells were counted using countess (automated cell counter, Thermo Fisher Scientific) twice and the viability and live cell count was recorded. The actual cell count was […] the live cell count. Based on the count, a cell suspension was prepared in colorless RPMI media for a final concentration of 7.5e6 cells/mL. Using Standard cassette multidrop combi, 20 μL of the 7.5e6 cells/mL cell stock was added to entire 384 well plate but for top half of column 1 (negative control) The multidrop combi was always primed to achieve a steady flow and washed after use with 20 mL de-ionized water followed by 20 mL alcohol. The cells were incubated in 5% CO2 incubator at 37° C.
Dosing was conducted using the following method. To dose assay plates and CTG plate was added 20 nL of compounds in DMSO using Echo (Beckman Coulter), and the plates were incubated at 37° C. for 18 h. The compound plates were spun at 1200 rpm for 1 min before dosing. The compound plate was sealed and properly stored during incubation.
After dosing, an HTRF assay was conducted using the following method. The treatment plates (IRAK4_HTRF) were centrifuged at 600 g for 10 min. Using CyBio Felix, Automated liquid handler (Analytikjena), 13 μL cell culture media was removed. To all columns, 7.5 μL lysis buffer was added, and an additional 7.5 μL of lysis buffer was added to column 1(top half, negative control). The plate was incubated on a shaker at room temperature for 2 h. The plate was spun down at 600 g for 5 min. Custom 20×IRAK4 Antibody obtained from CISBIO Anti-IRAK4-d2 (acceptor Ab) and Anti-IRAK4-K (donor Ab) were diluted to 1× antibody mix Using a multichannel repeater, 4 μL of 1× antibody mix was added to each wellThe plate was spun down at 600 g for 5 min and incubated in the dark at room temperature for 18 h The next day (after 18 hrs), HTRF assay plate was spun down at 600 g for 5 min and read at 665/615 nm using a Envision plate reader.
Background: Time-resolved FRET reads energy transfer from a long-lived donor to a nearby acceptor.

pEC50: −log10 of the molar value. The structures given here were assigned with low confidence; some may be wrong.

A word on the pEC50: it is the EC50 on a negative log10 scale, so that one unit is a factor of ten. As for `C[C@H](C#N)Nc1cc(-n2ncc3cc(C#N)cnc32)ncc1-n1cc([C@H]2CC[C@H](CCN3CCC(c4ccc(C5(F)CCC(=O)NC5=O)cc4)CC3)CC2)nn1` (stereo partly shown), the “LVL THP1 HTRF YMIN” value is reported as 3.6% and the negative-log EC50 (pEC50) was 8.70.

Take `N#Cc1cnc2c(cnn2-c2cc(Nc3cnn(CC(F)(F)F)c3)c(-n3cc([C@H]4CC[C@H](CCN5CCN(c6ccc(C7CCC(=O)NC7=O)cc6)CC5)CC4)nn3)cn2)c1` (stereo partly shown): the “LVL THP1 HTRF YMIN” value was determined as 0.9% and the pEC50 was 8.52.

Consider `C[C@H](C#N)Nc1cc(-n2ncc3cc(C#N)cnc32)ncc1-n1cc([C@H]2CC[C@H](CCN3CCN(c4ccc(N5CCC(=O)NC5=O)cc4)[C@H]4COC[C@H]43)CC2)nn1`, for which the “LVL THP1 HTRF YMIN” value is on record as 28.37% and the pEC50 is 6.92.

On to `C[C@H](C#N)Nc1cc(-n2ncc3cc(C#N)c(N)nc32)ncc1-n1cc([C@H]2CC[C@H](CCN3CCN(c4ccc(C5(C)CCC(=O)NC5=O)nc4)[C@@H](C)C3)CC2)nn1` (stereo partly shown), for which the “LVL THP1 HTRF YMIN” value is recorded as 1.9% and the pEC50 is 8.59.

In the case of `C[C@H](C#N)Nc1cc(-n2ncc3cc(C#N)c(N)nc32)ncc1-n1cc([C@H]2CC[C@H](CCN3CCN(c4ccc(C5(C)CCC(=O)NC5=O)cn4)CC3)CC2)nn1` (stereo partly shown), the “LVL THP1 HTRF YMIN” value was 2.2% and the pEC50 is 8.21.
